Results are given in words; binding and its absence hold for the method and conditions named. For some assays here: In cells and extracts the contact can be indirect. For some assays here: Binding can be weak; no strength is given. For some assays here: Tags and fused reporters may be left off the sequences shown.
T1: Flag-tagged CCDC8 (human) (UniProt Q9H0W5)
T1 sequence: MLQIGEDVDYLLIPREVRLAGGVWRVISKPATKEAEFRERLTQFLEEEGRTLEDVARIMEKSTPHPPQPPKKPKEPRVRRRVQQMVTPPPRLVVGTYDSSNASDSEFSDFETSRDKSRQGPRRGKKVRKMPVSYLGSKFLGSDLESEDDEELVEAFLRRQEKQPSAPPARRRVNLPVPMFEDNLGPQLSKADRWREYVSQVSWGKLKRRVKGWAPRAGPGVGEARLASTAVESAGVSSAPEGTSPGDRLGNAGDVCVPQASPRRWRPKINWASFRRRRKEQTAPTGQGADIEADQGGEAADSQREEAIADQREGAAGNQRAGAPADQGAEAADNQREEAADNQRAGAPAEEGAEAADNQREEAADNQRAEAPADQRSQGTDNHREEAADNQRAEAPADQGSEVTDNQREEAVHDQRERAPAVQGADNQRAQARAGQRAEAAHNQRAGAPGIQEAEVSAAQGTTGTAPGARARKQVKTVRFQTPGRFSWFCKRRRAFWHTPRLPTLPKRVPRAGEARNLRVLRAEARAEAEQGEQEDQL

B1: endogenous coiled-coil domain containing protein 8 (CCDC8) (protein, UniProt Q9H0W5 1-538)
chain: T1 sequence

How the values were obtained:
[1] = target: T1, Flag-tagged CCDC8 (human); assay: co-IP; lysates of transfected cells (BC100 buffer: 20 mM Tris-HCl pH 7.5, 100 mM NaCl, 1% Triton X-100, 1% CHAPS) incubated with anti-Flag M2 agarose beads at 4 °C overnight, five washes, eluted with 3xFlag peptide, Western blot; proteasome inhibitor PS-341 added in Fig. 4c
[2] = target: Gag mutant Δ8-126 (lacking all but the first 8 amino acids in matrix) (HIV-1 (BH10 assumed)); assay: incorporation into virus-like particles (Western blot of viral lysates); virus-like particles released from transfected cells; viral lysates probed with anti-Gag-CAp24 and anti-CCDC8

Row | Molecule | binding [1] | binding [2]
1 | exogenously expressed HIV-1 Gag (co-immunoprecipitation) | binds | 
2 | B1 |  | no binding
